# Experimental data from the supplement of paper PMC10727501.
# This is one part of the list. Repeats in this data set agree poorly, so a single value says little.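 Free-swimming zebrafish larvae were assessed for O-bend response probability to dark flashes (naive: first five; training: remaining flashes across four 60-flash blocks; test: later 60-flash block) and for OMR turning toward alternating leftward/rightward LED motion. Six treated larvae were compared against sixty 0.1% DMSO controls; hits required |SSMD|≥2.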
# Test system: Danio rerio larvae (5 dpf, TLF)
# Assay: Prob-Naive (SSMD vs DMSO vehicle); higher = higher than vehicle (e.g. higher dark-flash O-bend response probability, or better optomotor performance)
# Settings: 10 µM; pre-incubation: 30-90 min
row,SMILES,Prob-Naive
1,CC(C)[C@H](N)C(=O)OCCOCn1cnc2c(=O)[nH]c(N)nc21.Cl [Valaciclovir HCl],-0.311
2,Oc1nc(-c2ccc(C(F)(F)F)cc2)nc2c1CSCC2,-1.1
3,Cc1nnc(C(C)C)n1C1CC2CCC(C1)N2CC[C@H](NC(=O)C1CCC(F)(F)CC1)c1ccccc1 (stereo partly specified) [Maraviroc],0.0184
4,N#Cc1ccc(-c2csc(NN=C3CCCC3)n2)cc1 [Remodelin],-5.72
5,C[C@H](Cn1cnc2c(N)ncnc21)OCP(=O)(O)O [Tenofovir],-0.311
6,CCC[C@@H]1C[C@@H](C(=O)N[C@H]([C@H]2O[C@@H](SC)[C@H](OP(=O)(O)O)[C@@H](O)[C@H]2O)[C@H](C)Cl)N(C)C1 [Clindamycin phosphate],-0.491
7,COc1cc(O)cc([C@@H]2CC(=O)c3c(O)cc(O[C@@H]4O[C@H](CO)[C@@H](O)[C@H](O)[C@@H]4O[C@@H]4O[C@@H](C)[C@H](O)[C@@H](O)[C@@H]4O)cc3O2)c1 [Neohesperidin],-0.0234
8,O=C(NNc1nc2cc(F)ccc2n2cccc12)c1cnccn1,-0.419
9,CCOC(=O)c1ccc(N)cc1 [Benzocaine],-0.315
10,C[C@@H]1[C@H](O)[C@@H](C)/C=C/C=C/C=C/C=C/C=C/C=C/C=C/[C@H](O[C@@H]2O[C@H](C)[C@@H](O)[C@H](N)[C@@H]2O)C[C@@H]2O[C@@](O)(C[C@@H](O)C[C@@H](O)[C@H](O)CC[C@@H](O)C[C@@H](O)CC(=O)O[C@H]1C)C[C@H](O)[C@@H]2C(=O)O [Amphotericin B],0.255
11,Cl.Cl.Fc1cc(-c2cccc3ncc(-c4cnn(C5CCNCC5)c4)nc23)cc(F)c1CN1CCOCC1,0.102
12,C=C(NC(=O)C(=C)NC(=O)c1csc(C2=N[C@@H]3c4csc(n4)[C@H]4NC(=O)c5csc(n5)[C@H]([C@](C)(O)[C@@H](C)O)NC(=O)[C@H]5CSC(=N5)/C(=C/C)NC(=O)[C@H]([C@@H](C)O)NC(=O)c5csc(n5)[C@]3(CC2)NC(=O)[C@H](C)NC(=O)C(=C)NC(=O)[C@H](C)NC(=O)[C@H]([C@@H](C)CC)N[C@@H]2C=Cc3c([C@H](C)O)cc(nc3[C@H]2O)C(=O)O[C@@H]4C)n1)C(N)=O [Thiostrepton],-0.154
13,COc1ccc(-c2oc3c(CC=C(C)C)c(OC4O[C@H](CO)[C@@H](O)[C@H](O)[C@H]4O)cc(O)c3c(=O)c2OC2O[C@@H](C)[C@H](O)[C@@H](O)[C@@H]2O)cc1 (stereo partly specified) [Icariin],0.584
14,CC(C)NCC(O)COc1cccc2[nH]ccc12 (stereo unspecified) [Pindolol],0.444
15,NC(CO)(CO)CO [Trometamol],0.0839
16,Cc1cc(-c2ncc(CC(=O)Nc3ccc(-c4cnccn4)cn3)cc2C)ccn1,-0.0179
17,Cc1c[nH]c(-c2cnc(NCCNc3ccc(C#N)cn3)nc2-c2ccc(Cl)cc2Cl)n1.Cl,-0.17
18,Cc1oncc1C(=O)Nc1ccc(C(F)(F)F)cc1 [Leflunomide],-0.361
19,C[C@H]1CCN(C(=O)CC#N)C[C@@H]1N(C)c1ncnc2[nH]ccc12,0.538
20,COc1cc2c(Nc3ccc(NC(=O)c4ccccc4)cc3)ncnc2cc1OCCCN1CCOCC1,0.437
21,COc1ccc(C2(C#N)CCC(C(=O)O)CC2)cc1OC1CCCC1 (stereo unspecified) [Cilomilast],-0.724
22,CN(C)CCN1C(=O)c2cccc3cc(N)cc(c23)C1=O [Amonafide],-0.192
23,C/C=C1/[C@H]2C=C(C)C[C@]1(N)c1ccc(=O)[nH]c1C2 [(-)-Huperzine A (HupA)],-0.296
24,CCCC(=O)O[C@@]1(C(=O)COC(C)=O)CC[C@H]2[C@@H]3C[C@H](F)C4=CC(=O)C=C[C@]4(C)[C@]3(F)[C@H](O)C[C@@]21C [Difluprednate],-0.167
25,COc1cccc(-c2cc(=O)c3ccccc3o2)c1N,-0.297
26,COc1cc([C@H]2c3cc4c(cc3[C@@H](O[C@@H]3O[C@@H]5CO[C@@H](c6cccs6)O[C@H]5[C@H](O)[C@H]3O)[C@H]3COC(=O)[C@H]23)OCO4)cc(OC)c1O [Teniposide],-0.138

# In a second layout: entries from further up.
row	SMILES	Prob-Naive
12	C=C(NC(=O)C(=C)NC(=O)c1csc(C2=N[C@@H]3c4csc(n4)[C@H]4NC(=O)c5csc(n5)[C@H]([C@](C)(O)[C@@H](C)O)NC(=O)[C@H]5CSC(=N5)/C(=C/C)NC(=O)[C@H]([C@@H](C)O)NC(=O)c5csc(n5)[C@]3(CC2)NC(=O)[C@H](C)NC(=O)C(=C)NC(=O)[C@H](C)NC(=O)[C@H]([C@@H](C)CC)N[C@@H]2C=Cc3c([C@H](C)O)cc(nc3[C@H]2O)C(=O)O[C@@H]4C)n1)C(N)=O [Thiostrepton]	-0.154
13	COc1ccc(-c2oc3c(CC=C(C)C)c(OC4O[C@H](CO)[C@@H](O)[C@H](O)[C@H]4O)cc(O)c3c(=O)c2OC2O[C@@H](C)[C@H](O)[C@@H](O)[C@@H]2O)cc1 (stereo partly specified) [Icariin]	0.584
